Laboratory results reported in PMC8187409, “The zinc-finger protein Red1 orchestrates MTREC submodules and binds the Mtl1 helicase arch domain” (Nature Communications, 2021).

Tests used:
[1] = molecular target: T1, Red1 187–236 fragment (GST pull-down) (S. pombe) (UniProt Q9UTR8); assay: pull-down; GST pull-down: bait with 1.5 molar excess of prey, 20 mM HEPES pH 7.5, 150 mM NaCl (or higher, up to 600 mM or 1.5 M in the washes), 5% glycerol, 0.1% NP-40, 4 °C, glutathione agarose; SDS-PAGE, Coomassie; both purified
T1 sequence: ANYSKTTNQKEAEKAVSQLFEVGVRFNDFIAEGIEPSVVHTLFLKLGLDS

[2] = molecular target: T2, Red1 (spRed1), full length (S. pombe) (UniProt Q9UTR8); assay: two-hybrid; Gal4 BD and AD fusions (pGBKT7/pGADT7 or pG4BDN22/pG4ADHAN111) co-transformed into PJ69-4A; growth after 3 days at 30 °C on SDC-His (weak), SDC-His + 1 mM 3-AT (medium), SDC-Ade (strong)
T2 sequence: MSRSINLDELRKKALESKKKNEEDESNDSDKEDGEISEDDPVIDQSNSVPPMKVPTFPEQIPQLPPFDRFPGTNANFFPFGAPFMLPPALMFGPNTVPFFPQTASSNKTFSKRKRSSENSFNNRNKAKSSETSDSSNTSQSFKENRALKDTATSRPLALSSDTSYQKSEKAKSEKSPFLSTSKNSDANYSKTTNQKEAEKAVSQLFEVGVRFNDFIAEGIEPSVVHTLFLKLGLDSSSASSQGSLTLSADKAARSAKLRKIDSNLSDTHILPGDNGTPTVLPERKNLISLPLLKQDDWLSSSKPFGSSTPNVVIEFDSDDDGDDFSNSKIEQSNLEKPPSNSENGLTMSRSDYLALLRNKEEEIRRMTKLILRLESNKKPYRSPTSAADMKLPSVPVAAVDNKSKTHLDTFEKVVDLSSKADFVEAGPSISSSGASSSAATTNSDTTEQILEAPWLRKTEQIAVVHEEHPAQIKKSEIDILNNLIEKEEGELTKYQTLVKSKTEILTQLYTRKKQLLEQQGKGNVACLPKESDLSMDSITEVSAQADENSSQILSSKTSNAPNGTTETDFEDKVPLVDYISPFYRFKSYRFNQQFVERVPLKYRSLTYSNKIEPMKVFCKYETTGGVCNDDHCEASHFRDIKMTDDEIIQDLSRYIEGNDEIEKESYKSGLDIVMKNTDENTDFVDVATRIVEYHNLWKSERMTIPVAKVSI

[3] = molecular target: T3, Red1 C-terminal region (residues 345–712) (S. pombe) (UniProt Q9UTR8); assay: as above
T3 sequence: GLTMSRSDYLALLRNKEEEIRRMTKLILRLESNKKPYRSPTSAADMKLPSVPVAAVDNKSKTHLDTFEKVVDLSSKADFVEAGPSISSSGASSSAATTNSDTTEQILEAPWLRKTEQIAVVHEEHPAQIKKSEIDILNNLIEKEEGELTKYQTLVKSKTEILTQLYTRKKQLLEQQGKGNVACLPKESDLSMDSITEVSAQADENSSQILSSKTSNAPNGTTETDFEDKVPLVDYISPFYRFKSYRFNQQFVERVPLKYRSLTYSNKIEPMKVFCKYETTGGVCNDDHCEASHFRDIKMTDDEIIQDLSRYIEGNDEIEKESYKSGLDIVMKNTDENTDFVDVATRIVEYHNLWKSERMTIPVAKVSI

[4] = molecular target: T4, Red1 N-terminal region (residues 1–187) (S. pombe) (UniProt Q9UTR8); assay: as above
T4 sequence: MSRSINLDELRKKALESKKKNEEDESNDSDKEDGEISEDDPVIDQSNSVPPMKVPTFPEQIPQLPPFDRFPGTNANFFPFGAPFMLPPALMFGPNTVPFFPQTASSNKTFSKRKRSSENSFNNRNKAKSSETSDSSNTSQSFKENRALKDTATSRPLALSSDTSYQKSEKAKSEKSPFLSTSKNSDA

[5] = molecular target: Red5 (spRed5), full length (S. pombe); assay: as above
[6] = molecular target: Rmn1 (spRmn1), full length (S. pombe); assay: as above
[7] = molecular target: Rmn1 C-terminal region (residues 326–589) (S. pombe); assay: as above
[8] = molecular target: Iss10, full length (S. pombe); assay: as above

Iss10 1–51 fragment (GST pull-down) (S. pombe) (domain or fragment)
binding [1]: binds

Iss10, full length (S. pombe)
binding [2]: binds

Red5 (spRed5), full length (S. pombe)
binding [2]: binds

Rmn1 (spRmn1), full length (S. pombe)
binding [3]: binds | binding [2]: binds | binding [4]: binds

B1: Pab2 (spPab2), full length (protein, UniProt O14327 1-166)
chain: MSDQDALDTQEKELLEMKERVAEMEAEAAKLRAMQEQLDNETEALRNDKESIDAQSVYVGNVDYSVTPEELQSHFASCGSVNRVTILCDKFTGHPKGFAYIEFSEPSLVPNALLLNGSMLHERPLKVTPKRTNVPGMSRGRGRGRGRGRGRGRGGYRGRARGFAPY
binding [5]: binds | binding [6]: binds

B2: Pab2 lacking its C-terminal region (residues 137–166) (domain or fragment, UniProt O14327 1-136)
chain: MSDQDALDTQEKELLEMKERVAEMEAEAAKLRAMQEQLDNETEALRNDKESIDAQSVYVGNVDYSVTPEELQSHFASCGSVNRVTILCDKFTGHPKGFAYIEFSEPSLVPNALLLNGSMLHERPLKVTPKRTNVPG
binding [7]: binds

B3: Mmi1 (spMmi1), full length (protein, UniProt O74958 1-488)
chain: MSNTNFSTSRSSKSIPELPNLEALRSLWPPPSLNESGDTRSVWTTHTGEPVASSVLSTSGSNNFSSPLKRPAPESHDAPIGRRLMVDDPRLIKHGKYDFSRHCTDYGHSYEWPYFRSLRRESMLYHTSGSYPESQPPYSSYSTDAPHYYHAGSESSAYYDSRSRLHGIQPPPKRRTLSPPPRRLADPVVVGSSRYVEEEVYRRPPYTLASEVPSSASAYQAGYSSYPVRSSPQLSHEDTRHGIASSGSTRYPFVPANTRASHSPSLLEPYAHSLPSSVAPVGAYPEKSSYLLSNSSNDSASRKEKPKARASTPPPLNFSRASEHRNEKGERISMINPRVVLDENGISHRSRYFIMLCDNETAIAHAKKTSIWAVKKDSSKRISDAYKKASVYFIFVAQQTYNALGYAQVVSDLNSTELPFWSDSSHAGGVRIKWIKTCNLFSAEISEIVSHMDHGSEARDGMEMMYDEGSRLCTLINYAIMKRIGRDR
binding [8]: binds | binding [6]: binds

Results are given in words; binding and its absence hold for the method and conditions named. Binding can be weak; no strength is given. For some assays here: Sequences can lack the tags named with a protein.
